Whole data set: some 33,000 sequences, median “E-score (-0.5 to 0.5)” near -0.0014, cut for the highest 2% near 0.25. Some of the results follow.
target: T1, Cad1 (UniProt P24813); assay: PBM E-score (8-mer binding enrichment) (E-score (-0.5 to 0.5)); higher = stronger / more preferred TF binding; conditions: protein concentration: 100 nM; construct: GST-full length
T1 sequence: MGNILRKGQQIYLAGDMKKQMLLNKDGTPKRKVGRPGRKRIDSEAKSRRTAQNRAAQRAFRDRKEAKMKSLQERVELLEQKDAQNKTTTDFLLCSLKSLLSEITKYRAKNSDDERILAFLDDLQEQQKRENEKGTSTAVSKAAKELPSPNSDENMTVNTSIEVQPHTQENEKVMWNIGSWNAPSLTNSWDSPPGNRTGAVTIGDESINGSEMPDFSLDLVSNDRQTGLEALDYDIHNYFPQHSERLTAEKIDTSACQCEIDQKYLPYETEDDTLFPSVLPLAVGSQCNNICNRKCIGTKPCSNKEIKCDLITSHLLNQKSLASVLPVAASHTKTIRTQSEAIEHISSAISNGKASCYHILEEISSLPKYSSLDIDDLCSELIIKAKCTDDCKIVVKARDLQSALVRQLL
In short: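 PURExpress in vitro transcription/translation supplied GST-tagged yeast transcription factors, either full-length or DNA-binding domain. Applied at about 100-200 nM to universal all-10-mer Agilent arrays double-stranded by primer extension, the bound protein was detected with fluorescent anti-GST. E-scores, modified Wilcoxon-Mann-Whitney statistics, were given by the Universal PBM Analysis Suite to ungapped eight-base words pooled with their reverse complements after masliner normalisation.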

Point of comparison: GCGTGAGA, “PBM E-score” value 0.113. Against it:
- AAGCAGCT — lower, 0.0761
- AGAGTCCC — lower, -0.234
- ATGTGCAC — lower, 0.0488
- GTGGAGTA — lower, -0.0448
- ACGTCTCG — lower, -0.0676
- CATTAATA — higher, 0.297
- AATAGAGA — lower, -0.0158
- GCATAGAA — lower, 0.0802
- CATCCCCA — lower, -0.0572
- CAAGCGAG — lower, -0.0461
- ACGAACGG — higher, 0.136
- CCGCGCGC — higher, 0.144
- AACCGTGG — lower, -0.234
- ACCCAGTA — lower, -0.162
- AAACTCGG — lower, 0.0981
- ACCTCCTG — lower, -0.159
- ACCCTGGG — lower, -0.118
- CATCAGCC — lower, 0.00916
- GATCAAGA — the same, 0.113
- CACCGAGG — lower, -0.0536
- AATGAAAC — higher, 0.197
- AACGCGGG — lower, 0.0766
- CATGATCA — higher, 0.171
- CTGCATTA — lower, 0.014
- CCAGAGGC — lower, -0.218
- TAAGAGTA — lower, 0.108
- GGACTGGA — lower, -0.0976
- AGGCTATA — lower, -0.0926
- ACCTGGGG — lower, -0.274
- CCGCTTAA — higher, 0.147
- CGACGCCC — lower, -0.109
- AGACGCCA — lower, 0.0204
- GCGATCCA — lower, -0.0123
- TACCTTCA — lower, 0.00633
- AGATATTA — higher, 0.156
- CCAGCCAG — lower, -0.207
- ACAGATTC — lower, 0.0957
- GCACCGCA — lower, -0.132
- AAAGAGTC — lower, -0.157
- AAGTGTCT — lower, 0.0844
- ATTTACAG — lower, 0.0882
- GCCGCCCC — lower, -0.0835
- ACCGCCAC — lower, -0.0896
- ATCGGCAA — lower, 0.0362
- ACTGCAGC — lower, -0.156
- AAGGAATT — lower, -0.066
- TGTCGACA — lower, 0.0251
- AGGTGAAG — lower, -0.053
- GTACATAA — lower, 0.0232
- CGTTCTCA — lower, -0.0845
- CCCTTAGA — lower, -0.156
- TGACACAA — higher, 0.126
- AATGTGTC — lower, 0.0518
- CCATCCCA — lower, -0.167
- ACTACGCA — lower, -0.148
- CAGAGAGC — lower, -0.174
- AACGGGCC — lower, -0.149
- CAACCATC — lower, -0.166
- GGTTCGAC — lower, 0.025
- ATCTCCCC — lower, -0.373
- AGTGCATA — lower, 0.0539
- ATGGGTCA — lower, -0.0273
- ACAAATTA — higher, 0.295
- CAACTGGA — lower, 0.00883
- GATGCGCC — lower, 0.0113
- AAGAATTG — lower, 0.097
- GACACACC — higher, 0.191
- TGAGCCAA — lower, -0.098
- CTATGCAC — lower, 0.0273
- ACGCTAGC — lower, -0.0932
- ATGGGAGC — lower, -0.0599
- TAGCCATA — lower, -0.0739
- GCTAGAAA — higher, 0.171
- CTCACACA — lower, 0.0912
- GAATGTCA — higher, 0.128
- CCAGACCA — lower, 0.0202
- AGAATTAC — higher, 0.166
- CAAGATAG — lower, -0.0264
- GGTACAGA — lower, 0.0302
- CCTTAATA — lower, 0.0381
- GATGCATA — higher, 0.124
- CCCCCCCA — lower, -0.433
- ACTGGTGA — lower, -0.134
- CACTCTCC — lower, 0.00042
- GACCGCGA — lower, 0.0744
- CCACTCAC — lower, 0.00467
- CATCCTGC — lower, 0.0554
- GCGATTAC — lower, 0.0714
- AACCTTTC — lower, -0.0922
- ATTGTCGG — lower, 0.11
- ATTTTTGC — higher, 0.171
- AACCAGCA — lower, -0.0769
- CTAGAGCC — lower, -0.137
- CCACAACC — higher, 0.165
- AAGAGAGT — lower, -0.187
- CGGAAAAG — lower, -0.0157
- CAAGTTGG — lower, 0.105
- ATCCCATA — lower, -0.182
- CCCGACAC — lower, -0.0656
- AGTCACAA — lower, 0.0968
- ATACTGCG — lower, -0.003
- CATGGTCC — lower, -0.106
- CATGCGGC — lower, 0.0407
- ATAGCAAA — lower, 0.0497
- GTATGAGA — lower, 0.104
- GCAAGCCC — lower, -0.154
- CCAAGCGA — lower, -0.075
- AAGCGCGG — lower, -0.0419
- ATGAGGAA — lower, 0.0799
- CACATGGG — lower, -0.0669
- AGCATCCC — lower, -0.231
- AGACCGAT — lower, -0.101
- AGTGGGTA — lower, -0.00773
- GTTGGGGA — lower, -0.0964
- TCTCCGCA — lower, -0.0852
- CACGCAGA — lower, 0.00837
- AAAAACGA — higher, 0.183
- TATGGGAA — lower, 0.00165
- ACTACAAC — lower, 0.0401
- AGTCTGCG — lower, -0.213
- GAAGCGTC — lower, -0.0481
- GAACGGGC — lower, -0.166
- CCTCCTCG — lower, -0.0907
- CAGGTACC — lower, -0.0962
- CGAGAACG — lower, 0.0208
- AGGGATCC — lower, -0.237
- ATGTCGCG — higher, 0.116
- GGTATCAA — lower, -0.081
- AGCACGAG — higher, 0.156
- GAAGAACC — lower, -0.217
- AATGAATT — higher, 0.163
- GCGAGACC — lower, -0.0863
- ACTTGTTC — higher, 0.16
- GCTGACCA — higher, 0.252
- ACAGGACC — lower, -0.13
- CCTCCCGC — lower, -0.0731
- GTTAGCGA — higher, 0.133
- AAGGAATC — lower, 0.0577
- ACAGGCAG — lower, -0.0835
- ACACCTGA — lower, 0.0295
- ACACGGCA — lower, -0.175
- CTCCGCTC — lower, -0.158
- ATTACCCG — lower, 0.0888
- ATGCTTCC — lower, 0.033
- TCAGCTCA — higher, 0.147
- CTCCGGTA — lower, -0.0568
- AAAGTCTG — lower, 0.102
- CACTGACA — higher, 0.134
- CATCAATG — lower, 0.0128
- CTGTTCAC — lower, 0.0438
- GTTTTTGA — lower, 0.0961
- ATGTACTC — lower, -0.0498
- ACGGCATC — lower, -0.116
- ACCCAATG — lower, -0.0501
- AACTTCGT — lower, -0.0966
- CCCACCCG — lower, 0.0355
- GTTGTGCA — lower, -0.181
- AAGACGGT — lower, -0.205
- CCGGTGGC — lower, -0.211
- ACCTTATC — lower, -0.0737
- GCCTTCTA — lower, -0.277
- AGCCTCAA — lower, -0.0782
- AAGGTTGT — lower, -0.0389
- CCCGCACA — lower, -0.0532
- AACCTGGG — lower, -0.0449
- GCAAAGTA — higher, 0.114
- TCCCCACA — lower, -0.219
- TTAACTAA — higher, 0.291
- GCTTTGCC — lower, -0.183
- AGCGGCGA — lower, 0.0777
- AGTCAATA — lower, 0.0384

From the supplement of paper PMC3334620
